{"source": "patent US20230310421A1", "about": "“MOLECULES FOR USE IN THE TREATMENT OF VIRAL INFECTIONS” (priority 2020, published 2023)", "key": {"[1]": {"test_system": "human monocyte-derived macrophages", "assay": "qRT-PCR of NF-KB targets and ISGs in human monocyte-derived macrophages stimulated with polyIC and R848", "assay_type": "cell-based", "conditions": "polyIC and R848 stimulation"}, "Covid-19": {"test_system": "Covid-19", "conditions": "in vivo; cited from earlier work"}, "MHV-A59 [2]": {"test_system": "MHV-A59", "assay": "Direct (intrinsic) antiviral activity: survival, titer and syncitia formation in L929, BMDMs and LA4 cells", "assay_type": "cell-based, Murine Hepatitis Virus"}, "MHV-A59 [3]": {"test_system": "MHV-A59", "assay": "Macrophage extrinsic antiviral activity (EAV): supernatant of MHV-infected BMDM on MHV-infected L929 cells (viability, TCID50, syncitia)", "assay_type": "cell-based, Murine Hepatitis Virus", "conditions": "at cytotoxic-suppressing dosages, 10 μM"}}, "note": "At least one structure is not confirmed: it was looked up by name or label, or the drawing left a doubt.", "data": [{"compound": "C[C@@H]1C[C@H]2[C@@H]3CCC4=CC(=O)C=C[C@]4(C)[C@@]3(F)[C@@H](O)C[C@]2(C)[C@@]1(O)C(=O)CO", "note": "[Dexamethasone]", "values": [{"measurement": "proinflammatory cytokines TNFa and IL6", "setting": "[1]", "value": "generalized reduction"}, {"measurement": "survival in Covid-19", "setting": "Covid-19", "value": "moderately improves survival"}, {"measurement": "intrinsic antiviral activity", "setting": "MHV-A59 [2]", "value": "not"}, {"measurement": "macrophage-secreted antiviral activity (viability, syncitia of infected L929 cells)", "setting": "MHV-A59 [3]", "value": "failed to recover viability and to prevent syncitia"}]}]}
